Results taken from US20110158992A1 (SCHERING, published 2011).
Substitutions are numbered along the chain they refer to. Numbers in names are those of the source. Results are given in words; binding and its absence hold for the method and conditions named. Some results given as binding are weak or reduced against the parent protein; the word gives no strength.

T1: biotinylated huIL-23R-IgG (human, UniProt Q5VWK5 24-353, biotinylated)
T1 construct: not shown: human IgG1 Fc
T1 sequence: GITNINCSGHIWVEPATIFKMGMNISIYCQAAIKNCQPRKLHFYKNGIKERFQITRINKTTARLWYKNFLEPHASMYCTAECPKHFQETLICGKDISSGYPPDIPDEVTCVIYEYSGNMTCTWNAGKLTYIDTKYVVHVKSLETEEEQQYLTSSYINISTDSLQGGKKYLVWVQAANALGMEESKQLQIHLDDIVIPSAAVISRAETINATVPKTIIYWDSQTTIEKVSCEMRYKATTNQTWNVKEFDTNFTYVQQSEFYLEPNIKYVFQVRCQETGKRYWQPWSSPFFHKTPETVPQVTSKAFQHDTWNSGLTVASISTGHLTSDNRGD

T2: human IL-23R (human, UniProt Q5VWK5 24-353, limits assumed)
T2 construct: also called huIL-23R; human interleukin-23R
T2 sequence: T1 sequence

B1: chimeric 8B10 Fab, VH H102W (Fab, V domains shown)
VH: EVKLVESGGGLEQPKGSLKLSCTVSGFDFNSYGMSWVRQAPGKGLDLVADINSKSYNYATYYADSVKDRFTISRDDSQSMVYLEMDNLKTEDTALYYCTVHWSDYFEYWGQGVMVTVSS
VL: DIQMTQSPASLSASLGETVSIECLASEDIYNNLAWYQQKPGKSPQLLIYHASSLQDGVPSRFSGSGSGTQYSLKINSLESEDAATYFCLQDSEYPPTFGGGTKLELKR
B2: chimeric 8B10 Fab, VH I51A (Fab, V domains shown)
VH: B1 VH with I51A, W102H
VL: B1 VL
notes: Rat V domains with human CH1 and CL; E. coli periplasmic extract
B3: chimeric 8B10 Fab, VH S31A (Fab, V domains shown)
VH: B1 VH with S31A, W102H
VL: B1 VL
notes: as for B2
B4: chimeric 8B10 Fab, VH S55A (Fab, V domains shown)
VH: B1 VH with S55A, W102H
VL: B1 VL
notes: as for B2
B5: chimeric 8B10 Fab, VL N31A (Fab, V domains shown)
VH: B1 VH with W102H
VL: B1 VL with N31A
notes: as for B2
B6: chimeric 8B10 Fab, VL N31T (Fab, V domains shown)
VH: B1 VH with W102H
VL: B1 VL with N31T
notes: as for B2
B7: hu8B10-b variant, VH N30D (antibody, V domains shown)
VH: QVQLVESGGGVVQPGRSLRLSCAASGFDFDSYGMSWVRQAPGKGLDLVADINSKSYNYATYYADSVKDRFTISRDNSKNTLYLQMNSLRAEDTAVYYCAVHHSDYFEYWGQGTLVTVSS
VL: DIQMTQSPSSLSASVGDRVTITCRASQDIYTNLAWYQQKPGKAPKLLIYHASSLQDGVPSRFSGSGSGTDYTLTISSLQPEDFATYYCLQDSEYPPTFGQGTKVEIKR
notes: also called VH: 8B10-b N30D / VL: 8B10-b
B8: hu8B10-b variant, VH N30S (antibody, V domains shown)
VH: B7 VH with D30S
VL: B7 VL
notes: also called VH: 8B10-b N30S / VL: 8B10-b
B9: hu8B10-b variant, VH N52S (antibody, V domains shown)
VH: B7 VH with D30N, N52S
VL: B7 VL
notes: also called VH: 8B10-b N52S / VL: 8B10-b
B10: hu8B10-b variant, VH N57D (antibody, V domains shown)
VH: B7 VH with D30N, N57D
VL: B7 VL
notes: also called VH: 8B10-b N57D / VL: 8B10-b
B11: hu8B10-b variant, VH N57S (antibody, V domains shown)
VH: B7 VH with D30N, N57S
VL: B7 VL
notes: also called VH: 8B10-b N57S / VL: 8B10-b
B12: hu8B10-b variant, VL D56E (antibody, V domains shown)
VH: B7 VH with D30N
VL: B7 VL with D56E
notes: also called VH: 8B10-b / VL: 8B10-b D56E
B13: hu8B10-b variant, VL D56S (antibody, V domains shown)
VH: B7 VH with D30N
VL: B7 VL with D56S
notes: also called VH: 8B10-b / VL: 8B10-b D56S

How the values were obtained:
[1] = molecular target: T1, biotinylated huIL-23R-IgG; experiment: ECL binding assay of Fab variants
human IL-23R = molecular target: T2, human IL-23R; experiment: BIAcore SPR

Binder	binding [1]	binding (human IL-23R)
B1	binds	–
B2	binds	–
B3	binds	–
B4	binds	–
B5	binds	–
B6	binds	–
B7	–	binds
B8	–	binds
B9	–	binds
B10	–	binds
B11	–	binds
B12	–	binds
B13	–	binds
